{"source": "paper PMC7819943", "about": "“Rice protein-binding microarrays: a tool to detect cis-acting elements near promoter regions in rice”", "note": "The other results are listed elsewhere or left out.", "data": [{"target": "T1, OsSMF1 (Oryza sativa, UniProt Q6ZLB0 1-436)", "T1 sequence": "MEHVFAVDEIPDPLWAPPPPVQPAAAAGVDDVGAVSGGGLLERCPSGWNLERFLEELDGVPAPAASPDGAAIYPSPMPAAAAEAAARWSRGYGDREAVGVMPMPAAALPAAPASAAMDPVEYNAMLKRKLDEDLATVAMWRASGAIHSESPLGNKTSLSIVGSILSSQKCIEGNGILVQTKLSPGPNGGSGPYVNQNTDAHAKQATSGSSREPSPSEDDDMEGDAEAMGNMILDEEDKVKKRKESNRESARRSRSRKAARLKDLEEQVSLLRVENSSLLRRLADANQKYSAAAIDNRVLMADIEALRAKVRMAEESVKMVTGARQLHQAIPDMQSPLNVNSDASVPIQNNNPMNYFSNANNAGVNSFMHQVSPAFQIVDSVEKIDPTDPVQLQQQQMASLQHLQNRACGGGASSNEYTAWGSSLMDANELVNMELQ", "test": "protein-binding microarray (RPBM); PBS, 2% BSA, 51.3 ng/ul salmon testes DNA, 50 uM zinc acetate, 200 nM TF, 25 C, 1 h; high values mean tight binding", "details": "protein: recombinant; tags: N-terminal polyhistidine and DsRed monomer fusion (pET32a); chain copies: 2; label: CyDye5-dUTP incorporated in the synthesized complementary strand; 3' TTTTT single-stranded linker to array surface; dsDNA, one strand shown", "outline": "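The binding signal for each feature is its fluorescence intensity in arbitrary units. An Axon 4000B scanner was used to read a custom Agilent array that had been made double-stranded with Cy5-dUTP primer extension, blocked with 2% BSA, incubated at 25 °C for 1 h with 200 nM protein in PBS, 2% BSA, salmon testes DNA and 50 µM zinc acetate, and washed. The protein was an N-terminal polyhistidine–DsRed transcription factor fusion from E. coli BL21-CodonPlus, purified on Ni–NTA.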", "values": [{"sequence": "TAAAACAACATTTAACTTGCTATATTCAATTCATTCTTTTCGGAGTCACCTAGTGCAG", "binding signal": "26100 fluorescence intensity (a.u.)"}, {"sequence": "GGCCCGGAAAATTTCACGCCGCTGAACTGAACTGACGCGTCGGAGTCACCTAGTGCAG", "binding signal": "3150 fluorescence intensity (a.u.)"}, {"sequence": "TATATGGGCCTGAGTTGGCCCGGCAACGTGGGCCTTCTGCCGGAGTCACCTAGTGCAG", "binding signal": "3200 fluorescence intensity (a.u.)"}, {"sequence": "GGGTGATGCTGAACGCTGCAATGACTATTACTATGTTCCTCGGAGTCACCTAGTGCAG", "binding signal": "3200 fluorescence intensity (a.u.)"}, {"sequence": "AACTGCTAAGGGCCGGGGAATGCAGTTCGTTTTCGCCTGACGGAGTCACCTAGTGCAG", "binding signal": "12800 fluorescence intensity (a.u.)"}, {"sequence": "CAATAAGTGACAGATAGAAAGATAGAAAGGGGTCAAAATGCGGAGTCACCTAGTGCAG", "binding signal": "3550 fluorescence intensity (a.u.)"}, {"sequence": "TATACTCGTGTTATACATATATCAACAAAACAATAGGCCTCGGAGTCACCTAGTGCAG", "binding signal": "28900 fluorescence intensity (a.u.)"}, {"sequence": "TGTAGCACTTATGACTAATCATGGACTAATTAGGCTCAAACGGAGTCACCTAGTGCAG", "binding signal": "5360 fluorescence intensity (a.u.)"}, {"sequence": "CTCGCTCCTGTATCATCATGTGATGATGTCCCTAATACTCCGGAGTCACCTAGTGCAG", "binding signal": "5510 fluorescence intensity (a.u.)"}, {"sequence": "CATGCATCTCGGTCGTCGTCATTGCCAGATCGTCAGCGATCGGAGTCACCTAGTGCAG", "binding signal": "6420 fluorescence intensity (a.u.)"}, {"sequence": "TATGAAATATCCCATCCTATCATAGATTATTATATTACGACGGAGTCACCTAGTGCAG", "binding signal": "26400 fluorescence intensity (a.u.)"}, {"sequence": "CCGGAGGAGGAAGAACGAGCTGACAGGGTGGTGAGCTGGGCGGAGTCACCTAGTGCAG", "binding signal": "5020 fluorescence intensity (a.u.)"}, {"sequence": "CGTCACATGCCTTCTGATTCGGTTTGTTCTGGCCTTCTTGCGGAGTCACCTAGTGCAG", "binding signal": "3210 fluorescence intensity (a.u.)"}, {"sequence": "TTGCATGACTTAATACAAAATTTATATATACGTGTCCATTCGGAGTCACCTAGTGCAG", "binding signal": "3730 fluorescence intensity (a.u.)"}, {"sequence": "TACGGAACCTGTAATTTGTTTTGTTATTAGTCTACATTTACGGAGTCACCTAGTGCAG", "binding signal": "45800 fluorescence intensity (a.u.)"}, {"sequence": "GGATCAGATCGGATGTCCAGGCTGATGGGGCCGCGACGGTCGGAGTCACCTAGTGCAG", "binding signal": "15000 fluorescence intensity (a.u.)"}, {"sequence": "CTCTCCGAACCTGCGTCCGTCAGCAGGTGGGCGAGTTCGGCGGAGTCACCTAGTGCAG", "binding signal": "3640 fluorescence intensity (a.u.)"}, {"sequence": "TAAGCCTAATCACGATCACGTCATGATTTGACAATGTGTTCGGAGTCACCTAGTGCAG", "binding signal": "4010 fluorescence intensity (a.u.)"}, {"sequence": "GAGAGAATAGAGATGTGGGCATGCGGCGCAGGATGCAGGACGGAGTCACCTAGTGCAG", "binding signal": "37700 fluorescence intensity (a.u.)"}, {"sequence": "CTCCCTGCCCGCCCTGCGCAGCTCCTCCCACCGCCGCCTGCGGAGTCACCTAGTGCAG", "binding signal": "3270 fluorescence intensity (a.u.)"}, {"sequence": "CCCTCCCACGGCTGGATCCAGCTCCGCCGCCGCTGTATCTCGGAGTCACCTAGTGCAG", "binding signal": "3600 fluorescence intensity (a.u.)"}, {"sequence": "CCGGCAGCTTCACGCGACGAGGTTGCTCCGTCGTCCCGGCCGGAGTCACCTAGTGCAG", "binding signal": "25200 fluorescence intensity (a.u.)"}, {"sequence": "GCACCGCCGGCGACCTCGTGGACCTCGCCTGTCGCCACATCGGAGTCACCTAGTGCAG", "binding signal": "28400 fluorescence intensity (a.u.)"}, {"sequence": "AGAGGTACGTAAAATGACACATGTGCCTCTTCATACGCTCCGGAGTCACCTAGTGCAG", "binding signal": "3150 fluorescence intensity (a.u.)"}, {"sequence": "TCTTAGGCTGTGTTAGAGGGAGAGGAGATTGAGAAGATTGCGGAGTCACCTAGTGCAG", "binding signal": "3430 fluorescence intensity (a.u.)"}, {"sequence": "CGACGTCGGCGAGGGAGGGCTTCCTGGGCACGTCGGCGAGCGGAGTCACCTAGTGCAG", "binding signal": "3150 fluorescence intensity (a.u.)"}, {"sequence": "TGTAACTATTCTCGCGACACGTACACACCAACACATAAACCGGAGTCACCTAGTGCAG", "binding signal": "4520 fluorescence intensity (a.u.)"}, {"sequence": "CCGTCTGCCACGTCATTTTCGCCGCCCTCTGGGAGGGCGACGGAGTCACCTAGTGCAG", "binding signal": "12900 fluorescence intensity (a.u.)"}, {"sequence": "GGGTGATTTGTTGTAATGACGCGTGTGGTGGGGTGTGTGGCGGAGTCACCTAGTGCAG", "binding signal": "8170 fluorescence intensity (a.u.)"}, {"sequence": "GGTCAGTATCTCAAATCTACTCATCATTCTGAAAATCTTGCGGAGTCACCTAGTGCAG", "binding signal": "3260 fluorescence intensity (a.u.)"}, {"sequence": "CTTCCTTTGATAATATAATATATAGATAAATTCTCTAAGACGGAGTCACCTAGTGCAG", "binding signal": "3200 fluorescence intensity (a.u.)"}, {"sequence": "TTATTCTGTCAAGAACAATTTCGCCACTAGATCGGTTTGTCGGAGTCACCTAGTGCAG", "binding signal": "25800 fluorescence intensity (a.u.)"}, {"sequence": "TGAGCCATCATTTTAGTTCGTGGTGTACTGCAAAGAGCCACGGAGTCACCTAGTGCAG", "binding signal": "25000 fluorescence intensity (a.u.)"}, {"sequence": "CGAGGAATTAGGTTATGGTTGAGAAATGCTGACAATGTGACGGAGTCACCTAGTGCAG", "binding signal": "3960 fluorescence intensity (a.u.)"}, {"sequence": "TCCTTTGGAACATAAAAGTGACGTAGGCATGCAAATTTGTCGGAGTCACCTAGTGCAG", "binding signal": "13700 fluorescence intensity (a.u.)"}, {"sequence": "CGAGCGGGTGCGGGCGTGGCGATCGATCGAACGGCAAACCCGGAGTCACCTAGTGCAG", "binding signal": "3420 fluorescence intensity (a.u.)"}, {"sequence": "CCTTTTACTACCAAATGACGTATTATCCGTATTTGACAAACGGAGTCACCTAGTGCAG", "binding signal": "3370 fluorescence intensity (a.u.)"}, {"sequence": "TGGTCAAATATGTGTAGTCAACAACGTCATCTATTGAAAACGGAGTCACCTAGTGCAG", "binding signal": "3580 fluorescence intensity (a.u.)"}, {"sequence": "GCGGTAGCCAAGCCTGCCACGTCAGCTCTCGCGCAACGTCCGGAGTCACCTAGTGCAG", "binding signal": "34600 fluorescence intensity (a.u.)"}, {"sequence": "ATGCCTCACTGATGACGGTATCCCGTATGACCCGTCAGAGCGGAGTCACCTAGTGCAG", "binding signal": "5510 fluorescence intensity (a.u.)"}, {"sequence": "TGAAACCATGGCCCACCCATCAGTCACGTCACGTCGGGACCGGAGTCACCTAGTGCAG", "binding signal": "4040 fluorescence intensity (a.u.)"}, {"sequence": "TCGATCGATCGAATCGATTCCCCTCTCCCGAATCATCCCCCGGAGTCACCTAGTGCAG", "binding signal": "15600 fluorescence intensity (a.u.)"}]}]}
